Assay results reported in patent US20180094062A1 (Hoffmann-La Roche, published 2018).
These are yes or no findings as the source states them, for the method shown. Some binding calls cover weakened binding; strength is not graded here.

Protein sequences, listed by entry. Tags and fused reporters are not part of them. Lines headed by an entry give the natural chain unless they say otherwise; changes in a name come on top.
UniProt P21860: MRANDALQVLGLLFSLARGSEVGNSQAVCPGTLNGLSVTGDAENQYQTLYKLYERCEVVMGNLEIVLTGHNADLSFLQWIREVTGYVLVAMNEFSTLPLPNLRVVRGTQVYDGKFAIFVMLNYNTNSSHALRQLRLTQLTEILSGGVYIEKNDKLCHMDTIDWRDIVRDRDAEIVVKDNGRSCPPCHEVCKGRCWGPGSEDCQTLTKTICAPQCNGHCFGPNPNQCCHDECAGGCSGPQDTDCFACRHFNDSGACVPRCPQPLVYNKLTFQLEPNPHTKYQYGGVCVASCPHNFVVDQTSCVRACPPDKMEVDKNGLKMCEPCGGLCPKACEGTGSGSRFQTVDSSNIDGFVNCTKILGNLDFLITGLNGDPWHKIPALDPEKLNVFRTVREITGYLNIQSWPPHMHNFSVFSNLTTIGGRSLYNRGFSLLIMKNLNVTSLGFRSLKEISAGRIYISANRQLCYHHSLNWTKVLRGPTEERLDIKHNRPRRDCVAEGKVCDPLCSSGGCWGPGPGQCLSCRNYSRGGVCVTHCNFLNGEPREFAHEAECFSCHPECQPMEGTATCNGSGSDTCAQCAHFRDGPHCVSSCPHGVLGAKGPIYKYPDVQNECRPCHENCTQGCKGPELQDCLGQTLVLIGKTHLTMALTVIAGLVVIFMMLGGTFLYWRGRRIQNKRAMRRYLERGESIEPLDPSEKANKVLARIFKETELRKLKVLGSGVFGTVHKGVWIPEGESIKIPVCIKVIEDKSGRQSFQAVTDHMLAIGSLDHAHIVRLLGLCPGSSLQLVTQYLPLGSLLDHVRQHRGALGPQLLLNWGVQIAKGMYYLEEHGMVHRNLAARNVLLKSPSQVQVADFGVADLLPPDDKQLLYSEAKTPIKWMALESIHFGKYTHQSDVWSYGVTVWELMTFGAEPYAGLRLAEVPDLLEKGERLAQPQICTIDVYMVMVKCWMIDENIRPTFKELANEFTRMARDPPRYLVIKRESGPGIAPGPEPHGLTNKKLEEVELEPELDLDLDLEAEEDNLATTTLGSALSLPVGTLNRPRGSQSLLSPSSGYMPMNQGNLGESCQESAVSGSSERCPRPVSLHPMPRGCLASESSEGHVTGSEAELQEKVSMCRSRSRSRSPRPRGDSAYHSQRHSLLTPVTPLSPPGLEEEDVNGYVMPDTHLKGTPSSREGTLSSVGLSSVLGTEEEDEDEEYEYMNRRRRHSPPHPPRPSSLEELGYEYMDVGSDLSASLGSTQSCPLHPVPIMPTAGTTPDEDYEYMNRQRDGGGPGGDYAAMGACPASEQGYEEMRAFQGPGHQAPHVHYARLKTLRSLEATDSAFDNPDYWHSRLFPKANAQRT

How the values were obtained:
[1] = target: HER3 ECD-HRG complex (Heregulin-activated Her-3 ECD) (human) (UniProt P21860); assay: Interaction Map (TraceDrawer) calculated from SPR data of captured antibody with HER-3-ECD-HRG at 25 °C
[2] = target: human recombinant HER3 Extracellular Domain (HER3 ECD) (human) (UniProt P21860); assay: ELISA, antigen coated, hybridoma supernatant
[3] = target: human HER3, full length, on cells (T47D, MCF7, transfected HEK293) (human) (UniProt P21860); assay: IHC on formalin-fixed, paraffin-embedded HEK293 cells transiently transfected with full length HER3; NC = untransfected cells; antibody at 1 µg/ml
[4] = target: human recombinant HER3 Extracellular Domain (HER3 ECD) (human) (UniProt P21860); assay: SPR, antibody captured, 25 C
[5] = target: T1, recombinant Thermus thermophilus SlyD FKBP-Her3 (TtSlyD-FKBP-Her3); assay: SPR, antibody captured, 25 C
T1 sequence: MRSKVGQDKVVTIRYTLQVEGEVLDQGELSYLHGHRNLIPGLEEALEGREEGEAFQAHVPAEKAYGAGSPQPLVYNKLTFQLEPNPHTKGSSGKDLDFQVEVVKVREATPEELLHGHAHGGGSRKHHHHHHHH

[6] = target: human HER3, full length, on cells (T47D, MCF7, transfected HEK293) (human) (UniProt P21860); assay: IHC on fixed transfected HEK293 cells
[7] = target: HER3 ECD-HRG complex (Heregulin-activated Her-3 ECD) (human) (UniProt P21860); assay: SPR Biacore T200, antibody captured, 25 C
[8] = target: human recombinant HER3 Extracellular Domain (HER3 ECD) (human) (UniProt P21860); assay: SPR Biacore T200, antibody captured, 25 C
[9] = target: human HER3, full length, on cells (T47D, MCF7, transfected HEK293) (human) (UniProt P21860); assay: IHC on fixed transfected HEK293 cells, 1 µg/ml
[10] = target: HER3 ECD-HRG complex (Heregulin-activated Her-3 ECD) (human) (UniProt P21860); assay: SPR
SBP-tagged HER3-ECD = target: T2, SBP-tagged HER3-ECD (human, UniProt P21860 20-643); assay: plate assay: SBP-tagged HER3-ECD on streptavidin plate, antibody titrated, 10 nM Europium-labeled Heregulin-beta detected by time-resolved fluorescence; the antibody raises the Heregulin signal
T2 construct: not shown: SBP tag

[11] = target: human recombinant HER3 Extracellular Domain (HER3 ECD) (human) (UniProt P21860); assay: SPR Biacore 4000 kinetic screening
[12] = target: T1, recombinant Thermus thermophilus SlyD FKBP-Her3 (TtSlyD-FKBP-Her3); assay: SPR Biacore 4000 kinetic screening
[13] = target: HER3 ECD-HRG complex (Heregulin-activated Her-3 ECD) (human) (UniProt P21860); assay: SPR, antibody captured
[14] = target: human recombinant HER3 Extracellular Domain (HER3 ECD) (human) (UniProt P21860); assay: SPR, antibody captured
[15] = target: T1, recombinant Thermus thermophilus SlyD FKBP-Her3 (TtSlyD-FKBP-Her3); assay: SPR, antibody captured
[16] = target: T3, HER3 ECD peptide hairpin (β-hairpin of HER3), overlapping immobilized 15-mer peptides (human); assay: CelluSpots array of overlapping 15-mer peptides
T3 sequence (peptide): PQPLVYNKLTFQLEPNPHT

[17] = target: human HER3, full length, on cells (T47D, MCF7, transfected HEK293) (human) (UniProt P21860); assay: IHC on formalin-fixed, paraffin-embedded HEK293 cells transiently transfected with full length HER3; antibody at 1 µg/ml
[18] = target: HER3 ECD-HRG complex (Heregulin-activated Her-3 ECD) (human) (UniProt P21860); assay: SPR (Biacore) overlay, 90 nM Heregulin*Her-3 ECD complex on M-08-11
[19] = target: human recombinant HER3 Extracellular Domain (HER3 ECD) (human) (UniProt P21860); assay: SPR (Biacore) overlay, 100 nM Her-3 ECD without Heregulin on M-08-11
[20] = target: human HER3, full length, on cells (T47D, MCF7, transfected HEK293) (human) (UniProt P21860); assay: FACS on T47D cells treated with the Heregulin fragment (HRG); 1 µg M-08-11, 0 to 240 min at 37 °C, PE goat anti-mouse IgG
[21] = target: human HER3, full length, on cells (T47D, MCF7, transfected HEK293) (human) (UniProt P21860); assay: FACS on T47D cells without Heregulin; 1 µg M-08-11, 0 to 240 min at 37 °C, PE goat anti-mouse IgG
[22] = target: HER3 ECD-HRG complex (Heregulin-activated Her-3 ECD) (human) (UniProt P21860); assay: SPR functional assays
[23] = target: human HER3, full length, on cells (T47D, MCF7, transfected HEK293) (human) (UniProt P21860); assay: FACS on T47D cells
[24] = target: HER3 ECD-HRG complex (Heregulin-activated Her-3 ECD) (human) (UniProt P21860); assay: SPR (Biacore) overlay, 100 nM Heregulin/Her-3 ECD complex on M-08-11
[25] = target: T3, HER3 ECD peptide hairpin (β-hairpin of HER3), overlapping immobilized 15-mer peptides (human); assay: CelluSpots array of overlapping 15-mer peptides of the HER family hairpins, antibody at 1 µg/mL, chemiluminescence (paragraph 389 to paragraph 391)
[26] = target: HER3 ECD-HRG complex (Heregulin-activated Her-3 ECD) (human) (UniProt P21860); assay: SPR (Biacore 3000, 25 °C), M-08-11 captured from hybridoma supernatant, (5:1) Heregulin/Her3-ECD complex injected at 100 nM for 30, 90, 180 and 300 s, curves normalised
[27] = target: human recombinant HER3 Extracellular Domain (HER3 ECD) (human) (UniProt P21860); assay: SPR Biacore 3000 two-state analysis, Her-3 ECD at 1 µM, 25 C
[28] = target: human recombinant HER3 Extracellular Domain (HER3 ECD) (human) (UniProt P21860); assay: SPR two-state analysis
[29] = target: human recombinant HER3 Extracellular Domain (HER3 ECD) (human) (UniProt P21860); assay: SPR (Biacore 3000, 25 °C), M-08-11 captured from hybridoma supernatant, Her-3 ECD injected at 1 µM for rising injection times, curves normalised
[30] = target: HER3 ECD-HRG complex (Heregulin-activated Her-3 ECD) (human) (UniProt P21860); assay: SPR sensorgram overlay, 100 nM

Measured: binding

B1: anti-HER3 antibody M-46-01 (antibody, V domains shown)
VH: QIQLQQSGPQLVRPGASVKISCKASGYSFTSYWMHWVKQRPGRGLEWIGMIDPSDGVTRLNQKFKDKATLTVDNSSSTAYMQLSSPTSEDSAVHYCARVDVLYWYFDVWGAGTTVTVSS
VL: DIVLTQSPASLAVSLGQRATISCRASKSISISGYSYMHWYQQKAGQPPKLLIYLTSNLESGVPARFSGSGSGTDFTLNIHPVEEEDAATYYCHHSRELPFTFGSGTKLEIK
notes: mouse hybridoma clone
binds: [1] | [2] | [3] | [4] | [5] | [6] | [7] | [8] | [9] | [10] | SBP-tagged HER3-ECD | [11] | [12] | [13] | [14] | [15]

B2: anti-HER3 antibody M-08-11 (antibody, V domains shown)
VH: QAYLQQSGAELMRPGASVRMSCQASGYTFTSYTIHWLKQTPRQGLEWIGAIYPRNGDFSYNQKFKDKASLTVDTSSSTAYMHLSSLTSEDSAVYFCARTINYGDWFAYWGQGTLVTVSA
VL: DIQMIQSPASLFVSEGETVIITCRASENIYSNLAWYHQKKGKSPQVLVYAAIKLADGVPLRFSGSGSGTQFSLKINSLQSEDFGSYYCQHFWGPPYTFGSGTNLEIK
notes: mouse monoclonal antibody from hybridoma, tested as hybridoma supernatant or as antibody; also called M-011
binds: all assays above

B3: anti-HER3 antibody M-43-01 (antibody, V domains shown)
VH: EVQLQQSGTVLARPGASVKMSCKASDYTFSNYWVHWVKQRPGQGLEWIGAIYPGNGDSTYYQKFKGKATLTAVTSTSTAYMDLSSLTNGDSAVYFCTRSGVGYNYYFDYWGQGTTLTVSS
VL: DIQMTQSPASLSASVGETVTITCRASENIYSNLAWYQQKQGKSPQLLVYIATNLADGVPSRFSGSGSGTQFSLKINSLQPEDLGSYYCQHFYGTPFTFGTGTKLEIE
notes: mouse hybridoma clone
binds: [1] | [5] | [7] | [10] | [12] | [13] | [15]

B4: anti-HER3 antibody M-17-02 (antibody, V domains shown)
VH: EVQLQQSGTVLARPGASVKMSCKASGYSFTSYWIHWVKQRPGQGLEWIGAIYPGNSDTTYNQKFKGKAKLTAVTSASTAYMELSSLTNEDSAVYYCARTGVWTSYYFDYWGQGTTLTVSS
VL: DIQMTQSPASLSASVGETVTITCRASENIYSNLAWYQQKQGKSPQLLVYAATNLADGVPSRFSGSGSGTQFSLRINSLQPEDFGSYYCQHFYGTPFTFGTGTKLEIK
notes: mouse hybridoma clone
binds: [10] | [13] | [15]
